## Results of single-concentration screens

By UniProt entry, the sequences of proteins in these tests, tags left out. Residues count along the entry.
UniProt P9WNZ1, whole entry: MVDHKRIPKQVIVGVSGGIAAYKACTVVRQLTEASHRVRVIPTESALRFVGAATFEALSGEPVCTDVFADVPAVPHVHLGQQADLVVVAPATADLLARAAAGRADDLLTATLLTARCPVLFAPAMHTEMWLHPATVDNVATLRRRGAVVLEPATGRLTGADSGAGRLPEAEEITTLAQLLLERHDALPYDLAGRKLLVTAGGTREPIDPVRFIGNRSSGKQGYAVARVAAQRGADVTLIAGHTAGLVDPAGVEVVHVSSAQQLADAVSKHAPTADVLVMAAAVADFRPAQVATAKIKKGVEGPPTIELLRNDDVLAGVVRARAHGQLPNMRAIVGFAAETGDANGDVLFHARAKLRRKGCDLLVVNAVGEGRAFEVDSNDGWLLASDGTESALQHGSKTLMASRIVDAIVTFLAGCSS
UniProt A4I591, 1-473: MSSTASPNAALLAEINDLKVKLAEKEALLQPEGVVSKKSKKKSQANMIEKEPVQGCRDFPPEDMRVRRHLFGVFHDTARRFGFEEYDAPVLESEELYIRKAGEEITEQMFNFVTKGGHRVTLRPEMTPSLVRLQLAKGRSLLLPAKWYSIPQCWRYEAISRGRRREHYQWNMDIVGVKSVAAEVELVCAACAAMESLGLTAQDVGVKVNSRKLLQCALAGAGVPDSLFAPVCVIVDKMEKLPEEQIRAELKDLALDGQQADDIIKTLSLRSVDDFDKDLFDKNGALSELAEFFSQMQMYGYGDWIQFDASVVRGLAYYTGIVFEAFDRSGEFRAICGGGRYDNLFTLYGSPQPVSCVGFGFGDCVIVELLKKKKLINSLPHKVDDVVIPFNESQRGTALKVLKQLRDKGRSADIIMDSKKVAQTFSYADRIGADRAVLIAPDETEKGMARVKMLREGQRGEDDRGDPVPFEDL

Each number is a percent effect as filed. How 0% and 100% were set is not recorded. Most values in the screen are low, and negative values occur. Compounds were drawn at random from those tested, without regard to their results.

CoaBC: 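Enzyme assay of CoaBC with a phosphate dye (Biomol Green) read at 650 nm. Target: Coenzyme A biosynthesis protein CoaBC, Mycobacterium tuberculosis (UniProt P9WNZ1). Concentration: 30 µM. Direction is inferred from only a few compounds that gave an IC50; most scored high, so higher reads as stronger inhibition. Most strong results did not repeat in a second test. About 67,000 compounds were tested under these conditions; 0.06% (about 40) showed 50% or more at least once.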
LiHisRS: 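Enzyme assay of histidyl-tRNA synthetase; the read-out is not stated. Target: Histidine-tRNA ligase, Leishmania infantum (UniProt A4I591). Concentration: 30 µM. Higher reads as stronger inhibition (inferred: compounds with an IC50 in retests scored well above the rest). The assay is labelled LdHisRS but filed under L. infantum. Of about 69,000 compounds tested this way, about 410 (0.6%) reached 50% or more in at least one test.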
Leishmania in macrophages: 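Cell assay of Leishmania donovani living inside macrophages; the read-out is not stated. Concentration: 30 µM. Higher reads as stronger inhibition (inferred: compounds with an IC50 in retests scored well above the rest). Size under these conditions: about 69,000 compounds, about 1,000 of them at 50% or above in at least one test.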

With Cc1cnccc1CN(C)C1CCN(c2ncnc3[nH]cnc23)CC1 the screen gave CoaBC: -0.4%; LiHisRS: 17.95%; Leishmania in macrophages: -1.879%. CCc1ncnc2c1CCN(Cc1nccs1)CC2 read CoaBC: -1.833%; LiHisRS: 10.53%. With O=C(NCCCN1CCN(c2ncccn2)CC1)NCC1CCOC1 (stereo not drawn) the screen gave CoaBC: 16.7%; LiHisRS: 20.51%; Leishmania in macrophages: -8.383%. CN(C)CCCC(=O)N1C[C@H]2CC[C@@H]1CN(Cc1ccccc1)C2 read CoaBC: -4.733%; LiHisRS: 6.452%.

With O=C1NCCN(Cc2cccnc2)C1CC(=O)N1CCc2n[nH]cc2C1 (stereo not drawn) the screen gave CoaBC: 0.1227%; LiHisRS: 3.922%; Leishmania in macrophages: 19.69%. Result for CC(C)Cn1cnc(S(=O)(=O)NCCc2nnc3ccccn23)c1 was CoaBC: -7.317%; LiHisRS: -4.202%; Leishmania in macrophages: -22.44%. With CC/C=C(/C)C(=O)N1CCN(C2=NCC(C)S2)CC1 (stereo not drawn) the screen gave CoaBC: 0.7246%; LiHisRS: 13.13%; Leishmania in macrophages: 15.75%. Result for CC(=O)NCCNC(=O)CN1CCOC(Cn2cc(C)cn2)C1 (stereo not drawn) was CoaBC: 5.216%; LiHisRS: 4.348%; Leishmania in macrophages: 6.175%.

For COc1cc2ccn(CCCO)c(=O)c2cc1F the result was CoaBC: 2.016%; LiHisRS: 3.509%; Leishmania in macrophages: 11.6%. O=C(c1ccc(Cl)cc1)N1CCC(N2CCCNC2=O)CC1 gave CoaBC: -1.316%; LiHisRS: 11.03%; Leishmania in macrophages: 14.46%. CN(C)c1ncc2c(n1)C1(CCN(Cc3ccccc3)C1)COC2 (stereo not drawn) read CoaBC: 8.817%; LiHisRS: 5.714%. Result for CC(C)N1CCC(Nc2ccn(Cc3ccccn3)n2)C1=O (stereo not drawn) was CoaBC: -8.547%; LiHisRS: 8.547%; Leishmania in macrophages: -8.749%.

Result for Cc1ccc2nc(C)c(C)c(C(=O)N3CCS(=O)(=O)CC3)c2c1 was CoaBC: 1.542%; LiHisRS: 2.083%; Leishmania in macrophages: 17.68%. For COC(=O)c1ccc(N2CCN(C(=O)C3CCC3)C(C)C2)cc1 (stereo not drawn) the result was CoaBC: 7.212%; LiHisRS: 16.67%; Leishmania in macrophages: -64.68%. Result for COCC(=O)N1CCO[C@H]2[C@H](OC)CC[C@@H]21 was CoaBC: 5.398%; LiHisRS: 9.023%. For Cc1cccnc1NCCNC(=O)C1CCN(C(=O)N(C)C)CC1 the result was CoaBC: -3.427%; LiHisRS: -3.03%; Leishmania in macrophages: -3.759%.

For O=C([C@H]1C[C@H]2OCC[C@H]2N(Cc2ccccn2)C1)N1CCCCO1 the result was CoaBC: 5%; LiHisRS: 22%. COCCn1ccc(=O)c(OCC(=O)Nc2ccccc2)c1C read CoaBC: -1.48%; LiHisRS: 15.53%; Leishmania in macrophages: 36.03%. For CCC1CN(c2cnn(C)c(=O)c2Cl)CCO1 (stereo not drawn) the result was LiHisRS: 8.571%; Leishmania in macrophages: 27.15%. O=C(O)C(F)(F)F.O=C(O)C(F)(F)F.[H][C@]12CCC(=O)N(c3cccnc3)[C@@]1([H])CCN2c1ncc(CC)cn1 gave Leishmania in macrophages: 46.14%.

Result for Cc1c(CC(=O)N2CCSCC2)nnn1-c1cccc(Cl)c1 was CoaBC: 0.5076%; LiHisRS: 24.71%; Leishmania in macrophages: -9.894%.

2 of the entries, repeated:

{"smiles": "O=C(NCCCN1CCN(c2ncccn2)CC1)NCC1CCOC1", "stereo": "stereo not drawn", "CoaBC": 16.7, "LiHisRS": 20.51, "Leishmania in macrophages": -8.383}
{"smiles": "CN(C)c1ncc2c(n1)C1(CCN(Cc3ccccc3)C1)COC2", "stereo": "stereo not drawn", "CoaBC": 8.817, "LiHisRS": 5.714}

Source: ChEMBL document CHEMBL3988442, “University of Dundee, Small-Polar-MMV Screening Library” (2021).